Assay results taken from patent US20170292959A1, “PLASMIDS COMPRISING INTERNAL RIBOSOMAL ENTRY SITES AND USES THEREOF” (Dana-Farber Cancer Institute, Inc., priority 2014, published 2017).
Results are given in words; binding and its absence hold for the method and conditions named. Some results given as binding are weak or reduced against the parent protein; the word gives no strength.

Sequences of proteins named here, by UniProt entry; tags and fusion partners are left off. A change or cut given only in a name is not applied to a line headed by its entry. A line that says so, or that is headed by a name, gives the form on record, which may keep a tag or linker.
UniProt Q9UKT9: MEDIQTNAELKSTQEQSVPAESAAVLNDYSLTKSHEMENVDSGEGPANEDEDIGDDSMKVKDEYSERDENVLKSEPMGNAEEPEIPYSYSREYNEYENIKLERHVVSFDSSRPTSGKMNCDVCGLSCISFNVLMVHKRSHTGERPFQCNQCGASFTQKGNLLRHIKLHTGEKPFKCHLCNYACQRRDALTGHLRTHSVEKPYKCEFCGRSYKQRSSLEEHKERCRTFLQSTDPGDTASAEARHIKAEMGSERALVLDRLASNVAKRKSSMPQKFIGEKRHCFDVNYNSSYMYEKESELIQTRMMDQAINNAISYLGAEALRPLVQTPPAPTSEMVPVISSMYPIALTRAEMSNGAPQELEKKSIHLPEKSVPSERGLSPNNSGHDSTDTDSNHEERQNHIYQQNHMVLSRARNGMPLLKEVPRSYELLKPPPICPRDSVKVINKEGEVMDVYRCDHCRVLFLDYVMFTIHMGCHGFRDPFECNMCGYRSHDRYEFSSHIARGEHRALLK
cereblon (CRBN), wild-type (Q96SW2, form named): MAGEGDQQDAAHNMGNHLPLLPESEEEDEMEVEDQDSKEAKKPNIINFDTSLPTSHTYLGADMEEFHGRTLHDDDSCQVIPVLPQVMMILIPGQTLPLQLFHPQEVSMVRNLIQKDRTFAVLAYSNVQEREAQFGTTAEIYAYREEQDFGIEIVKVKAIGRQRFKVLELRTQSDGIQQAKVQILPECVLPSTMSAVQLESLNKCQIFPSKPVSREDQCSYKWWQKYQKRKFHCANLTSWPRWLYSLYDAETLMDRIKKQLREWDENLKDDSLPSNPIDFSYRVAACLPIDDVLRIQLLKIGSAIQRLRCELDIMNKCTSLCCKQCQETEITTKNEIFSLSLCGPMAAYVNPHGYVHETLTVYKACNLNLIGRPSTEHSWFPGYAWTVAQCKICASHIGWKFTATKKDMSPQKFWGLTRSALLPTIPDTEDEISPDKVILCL

Assays:
[1] = biological target: endogenous IKZF3 (UniProt Q9UKT9); assay: FLAG-tagged CRBN on anti-FLAG beads mixed with MM1S CRBN-/- cell extracts; lenalidomide 10 µM added after lysis; immunoblot
[2] = biological target: cereblon (CRBN), wild-type (human) (UniProt Q96SW2); assay: cotransfection in MG132-treated 293FT cells, with lenalidomide

Row | binding [1] | binding [2] | Substance
1 | binds | – | cereblon (CRBN), wild-type (from UniProt Q96SW2 1-441)
2 | – | binds | IKZF3 (exogenous) (from UniProt Q9UKT9 1-509)
